# Primary screen of a compound library

Amino acid sequences for entries named in this document (tags omitted). Residues count along the entry.
UniProt Q4DA54, 1-478: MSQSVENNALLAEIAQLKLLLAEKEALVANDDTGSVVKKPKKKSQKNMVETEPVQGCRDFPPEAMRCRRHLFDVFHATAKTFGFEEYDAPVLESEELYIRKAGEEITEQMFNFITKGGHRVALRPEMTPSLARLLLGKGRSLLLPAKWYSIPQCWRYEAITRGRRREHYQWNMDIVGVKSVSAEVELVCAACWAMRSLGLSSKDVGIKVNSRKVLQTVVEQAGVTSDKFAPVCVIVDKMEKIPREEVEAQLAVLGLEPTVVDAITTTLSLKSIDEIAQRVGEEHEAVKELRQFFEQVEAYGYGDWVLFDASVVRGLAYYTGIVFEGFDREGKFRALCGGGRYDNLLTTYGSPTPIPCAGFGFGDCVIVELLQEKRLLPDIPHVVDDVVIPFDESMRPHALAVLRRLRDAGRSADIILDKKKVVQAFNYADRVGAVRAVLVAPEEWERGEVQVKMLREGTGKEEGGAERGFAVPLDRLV

The values are deposited in ChEMBL (CHEMBL3988442, “University of Dundee, Small-Polar-MMV Screening Library” (2021)).

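Enzyme assay of histidyl-tRNA synthetase; the read-out is not stated. Target: Histidine-tRNA ligase, Trypanosoma cruzi CL Brener (UniProt Q4DA54). Concentration: 30 µM. The record gives no direction; compounds that gave an IC50 in retests scored well above the rest, so higher reads as stronger inhibition. About 69,000 compounds were tested under these conditions; 0.045% (about 31) showed 50% or more at least once.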

Each number is a percent effect as filed.
The controls that fix the scale are not given in the record; negative values are as filed.
This is an unselected part of the compounds tested.

compound,effect
CCOCCC(=O)N(Cc1ccncc1)C(C)CC (stereo not given),2.941%
CCC(C(=O)NCc1ccncc1)N(c1cccc(C)c1)S(C)(=O)=O (stereo not given),2.905%
COc1cccc(C(C)N2CCN(S(=O)(=O)c3ccccc3)CC2)c1 (stereo not given),7.006%
CC(=O)NCC(=O)N1CC[C@H](OCC2CC2)[C@@H]1Cc1cccnc1,-0.5405%
O=c1[nH]nc(C2CC2)n1-c1cccc(Cl)c1,0%
COCCCN1CCN(CCOC)C(C)C1 (stereo not given),7.602%
CN(Cc1ncc(C(C)(C)C)o1)C1CCCN(c2cccnn2)C1 (stereo not given),4.511%
CCc1nc(C2CCCN(C(=O)c3cccc4cn[nH]c34)C2)no1 (stereo not given),1.149%
Cn1c(N2CCOCC2)nc2cc(C(=O)N3CC(O)CO3)ccc21 (stereo not given),-2.232%
CCCN1CCCC2(CCN(S(=O)(=O)c3cccnc3)C2)C1=O (stereo not given),9.392%
COc1ccc(CN2CCC(O)CC2)c(OC)c1,3.333%
CC(=O)N1CCN(CC(=O)NCCCN(C)c2ccccc2)CC1,1.064%
CN1CCN(C(=O)C2CCCN2c2ncnc3ccsc23)CC1 (stereo not given),0%
COCCc1noc(CN2CC(Cc3ccccc3)CC2=O)n1 (stereo not given),1.22%
CCOc1cccc(CNC2CCCN(Cc3noc(C)n3)C2)c1 (stereo not given),5.172%
O=C(Nc1cccc(CN2CCC(CO)CC2)c1)c1cc(Cl)c[nH]1,7.035%
CCc1nc(C)c(C(=O)NCCN2CCC(C)CC2)s1,4.183%
CCCNC(=O)c1cc(-c2cnc(N3CCCC3)nc2)cn1C,9.804%
COc1cccc(CN(C)Cc2c(C)noc2C)c1OC,2.609%
CNC(=O)[C@@H]1C[C@H]2CN(Cc3ccc(C)o3)C[C@H]2N1C(C)=O,-2.062%
Cc1ncnc2c1CCN(C(=O)c1ccncc1F)CC2,3.941%
Cc1cnn(CC2CCCN2Cc2noc(C3CC3)n2)c1 (stereo not given),-1.69%
CCc1cccc(C)c1NC(=O)C1CC(=O)N(Cc2ccccn2)C1 (stereo not given),0%
O=C(O)c1nnn(-c2ccc(C(F)(F)F)cc2)c1-c1ccncc1,7.317%
Cc1cccc(CN2CCCC2(C(N)=O)c2cnccn2)n1 (stereo not given),3.191%
CN(CC(F)(F)F)C(=O)COc1nc(Cc2ccc(F)cc2)no1,3.867%
CNC(=O)CCc1cc(C)nc(C2CCN(C3CCCCC3)CC2)c1,11.11%
Cc1nc(C)n(C2CCCN(C(=O)c3cc(C4CC4)on3)C2)n1 (stereo not given),8.504%
Cn1ccnc1CN1CC[C@@H](NS(C)(=O)=O)[C@@H]1Cc1ccccc1,1.97%
Cc1csc(N2CCCN(C(=O)c3occc3C)CC2)n1,2.26%
COC1CCN(C(=O)Nc2cc(C(F)(F)F)c[nH]c2=O)CC1,1.143%
Cc1ccsc1C(O)CNC(=O)Cc1ccc(F)cc1 (stereo not given),-1.212%
Cn1ccc2ccc(C(=O)N3CC[C@@]4(O)CCCC[C@H]4C3)cc21,-1.754%
C[C@@H]1CN(Cc2cc(C3CCCCC3)no2)CC[C@]1(C)O,0.5405%
CS(=O)(=O)NCc1cc(=O)n2c(n1)CN(Cc1ccco1)CCC2,5.747%
Cc1nc(C)c(S(=O)(=O)NC(=O)c2ccsc2)s1,4.95%
Cc1nccn1-c1ccc(CNC(=O)c2ccc(O)nc2)cn1,2.89%
CC(C)n1cc2cc(NC(=O)Cn3cnnn3)ccc2n1,9.677%
Cc1cc(NCCOCCS(C)(=O)=O)nc2ccccc12,7.389%
COC(=O)c1ccc2nc(CO[C@H]3CN(CC4CC4)C[C@H]3F)[nH]c2c1,-1.493%
Cc1ccc(NC2(C(=O)NCCCN)CCCC2)cc1,5.682%
Cc1nc(CN2C(=O)C[C@@H]3[C@@H]2CCN3S(C)(=O)=O)cs1,12.06%
O=c1c(CN2CCOCC2)coc2ccc(Cl)cc12,7.407%
Cc1cc(NCCn2cccn2)n2ncnc2n1,7.065%
Cc1noc(C)c1CN(C)CC(=O)/N=c1\cc[nH]n1C(C)C1CC1 (stereo not given),11.9%
COC(=O)CNC(=O)c1nc(Cl)sc1C(C)C,9.278%
Cc1noc(CS(=O)(=O)CC(=O)NC(C)c2ccccc2)n1 (stereo not given),0.6494%
COc1ccc(C(C)=O)c(OCC(=O)NC(C)c2ccc(F)cc2)c1 (stereo not given),-1.695%
CNc1ncccc1CN1CCN(c2cc(NC3CC3)nc(N)n2)CC1,8.287%
CN1CCN(c2cccc(NC(=O)NCc3csc(N(C)C)n3)c2)C1=O,19.75%
COCCC(C)NC(=O)N1CCSC(C)(C)C1 (stereo not given),4.202%
COc1ccc(CN2CCC(c3nccnc3-n3ccnc3)CC2)cc1,4.494%
Cn1cnnc1-c1ccnc(NCc2ccc(Br)cc2)c1,13.33%
CC(O)CCN(C)C(=O)Nc1cccc(F)c1 (stereo not given),3.125%
COc1cc(C)c(C2CC(=O)NCc3nc4sccn4c32)cc1C (stereo not given),0%
Cc1cnc(CN(Cc2ccc(C#N)cc2F)C2CCN(C)C2)o1 (stereo not given),10.92%
COC(=O)CC1C(=O)NCCN1c1nc2c(s1)c(C)nn2C (stereo not given),6.557%
Fc1cnccc1CN1CCC2(CCNCC2)C1,5.435%
c1cc(CCn2ccc(NC3CCSCC3)n2)ccn1,0%
CC(CNC(=O)N(C)Cc1ccco1)N1CCc2sccc2C1 (stereo not given),2.632%
CCN(CC)S(=O)(=O)c1ccc2c(c1)N(Cc1cccnc1)C(=O)CS2,6%
Cc1nc(C2CCCN2C(=O)COc2ccccc2)ncc1C(N)=O (stereo not given),1.498%
COC(=O)CC1CCN(C(=O)c2ccc(-n3nnnc3C)cc2)CC1,0.9901%
Cc1ccc(-c2nc(CN(Cc3cccs3)CC3CCCO3)no2)cc1 (stereo not given),13.52%
Cc1nn(C)c(C)c1CN(C)C(C(=O)O)c1ccc(F)cc1F (stereo not given),9.091%
Cc1nccn1[C@@H]1CC[C@@H](N(C)S(=O)(=O)c2ccccc2F)[C@H]1O,3.39%
Cc1cc(CN2CCC(c3cc(Cc4ccccc4)n[nH]3)CC2)[nH]n1,11.11%
O=c1cc(CNCc2ccc3c(c2)OCO3)nc2ccccn12,10.89%
N#Cc1cccc(N2CCCC(CO)(CCOc3ccccc3)C2)n1 (stereo not given),5.455%
CCCN1CCCn2nc(CNC(=O)C3CCOC3)cc2C1 (stereo not given),1.622%

Repeated from the top, 9 entries:

compound	effect
CCOCCC(=O)N(Cc1ccncc1)C(C)CC (stereo not given)	2.941%
CCC(C(=O)NCc1ccncc1)N(c1cccc(C)c1)S(C)(=O)=O (stereo not given)	2.905%
COc1cccc(C(C)N2CCN(S(=O)(=O)c3ccccc3)CC2)c1 (stereo not given)	7.006%
CC(=O)NCC(=O)N1CC[C@H](OCC2CC2)[C@@H]1Cc1cccnc1	-0.5405%
O=c1[nH]nc(C2CC2)n1-c1cccc(Cl)c1	0%
COCCCN1CCN(CCOC)C(C)C1 (stereo not given)	7.602%
CN(Cc1ncc(C(C)(C)C)o1)C1CCCN(c2cccnn2)C1 (stereo not given)	4.511%
CCc1nc(C2CCCN(C(=O)c3cccc4cn[nH]c34)C2)no1 (stereo not given)	1.149%
Cn1c(N2CCOCC2)nc2cc(C(=O)N3CC(O)CO3)ccc21 (stereo not given)	-2.232%